Data set [1] is described as follows: Reduction of Fe(III) using various electron donor agents, visual color change (Example VI). To be noted: 15% HCl, 20 pounds ammonium molybdate per 1000 gallons, 2500 ppm ferric ion, donor equimolar to 1% thioglycolic acid, room temperature.
Data set [2] can be described thus: Amounts of electron transfer agents needed to reduce 2500 ppm ferric ion in less than five minutes (Example III). To be noted: room temperature; for optimum amount that should be used: 1% thioglycolic acid, 2500 ppm ferric ion; for amount required for the same reduction rate (2500 ppm Fe(III) in 2-3 minutes): Na2MoO4 and KI used together.

On to `OCC(O)CS` (centres unmarked) [3-mercapto-1,2-propanediol], for which the “Reduction of Fe(III)” value in data set [1] is listed as “Yes”.
The same measure, in the same setting: in the case of `O=C1O[C@H]([C@H](O)CO)C(O)=C1O` [Erythorbic acid, reference compound] it was “No”; in that of `O=C(O)CC(S)C(=O)O` (centres unmarked) [Thiomalic (mercaptosuccinic) acid], “Yes”.
As to `[I-].[K+]` [potassium iodide], in data set [2] (28% HCl), the “optimum amount that should be used” value was 10 pounds per 1000 gallons of the acid solution and the “amount required for the same reduction rate (2500 ppm Fe(III) in 2-3 minutes)” value is recorded as roughly 20 lbs./Mgal.
As to `[Na+].[Na+].[O]=[Mo](=[O])([O-])[O-]` [sodium molybdate crystalline, sodium molybdate], the “optimum amount that should be used” value in data set [2] (15% HCl) is “approximately 14 pounds per 1000 gallons of the acid solution”. In data set [2] (28% HCl), the “optimum amount that should be used” value is “approximately 28 pounds per 1000 gallons of the acid solution” and the “amount required for the same reduction rate (2500 ppm Fe(III) in 2-3 minutes)” value is reported as “approximately 30 lbs./Mgal”.

Source of the values: patent US6534448B1, “Composition and method for acidizing wells and equipment without damaging precipitation” (Halliburton Energy Services, Inc., priority 2000, dated 2003).
